Paper PMC6599889
No constants are given. Whether binding was seen depends on the method and setting. Some binding calls cover weakened binding; strength is not graded here. Where a sequence is shown, tags or fusion partners need not be part of it.

The chains behind the UniProt entries cited, without tags or fusion partners. Where a name states a change or a piece, a line headed by the entry shows the natural chain unless it says otherwise. A line that says so, or that is headed by a name, gives the form on record, which may keep a tag or linker.
UniProt P14416: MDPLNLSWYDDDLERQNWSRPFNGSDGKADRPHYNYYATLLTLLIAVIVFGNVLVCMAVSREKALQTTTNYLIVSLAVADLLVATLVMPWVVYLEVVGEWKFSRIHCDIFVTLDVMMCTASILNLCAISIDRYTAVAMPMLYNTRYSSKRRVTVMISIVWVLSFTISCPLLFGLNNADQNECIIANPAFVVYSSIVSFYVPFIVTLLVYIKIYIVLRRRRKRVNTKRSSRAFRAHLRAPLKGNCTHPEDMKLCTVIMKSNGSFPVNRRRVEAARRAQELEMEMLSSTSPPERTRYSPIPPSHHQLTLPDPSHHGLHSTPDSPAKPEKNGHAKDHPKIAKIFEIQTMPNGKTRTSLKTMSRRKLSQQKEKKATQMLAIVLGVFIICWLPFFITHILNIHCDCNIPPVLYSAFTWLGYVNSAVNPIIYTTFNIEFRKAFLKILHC
D2RS-Td-Tomato (short isoform of the dopamine 2 receptor tagged with Td-Tomato) (P14416-2, form named): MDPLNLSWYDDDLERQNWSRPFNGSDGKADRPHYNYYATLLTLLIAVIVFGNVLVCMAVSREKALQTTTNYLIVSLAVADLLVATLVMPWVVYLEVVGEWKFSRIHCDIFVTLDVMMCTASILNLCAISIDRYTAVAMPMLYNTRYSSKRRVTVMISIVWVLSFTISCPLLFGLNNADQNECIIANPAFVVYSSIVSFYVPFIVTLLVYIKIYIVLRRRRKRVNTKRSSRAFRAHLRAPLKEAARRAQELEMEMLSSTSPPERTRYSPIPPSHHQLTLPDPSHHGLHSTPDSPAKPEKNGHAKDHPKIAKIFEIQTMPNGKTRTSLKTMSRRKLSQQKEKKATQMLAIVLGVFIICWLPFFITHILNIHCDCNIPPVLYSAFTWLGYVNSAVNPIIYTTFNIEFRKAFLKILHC

Experiments:
[1] = target: T1, GPR37-eGFP (human G Protein-Coupled Receptor 37 fused to enhanced Green Fluorescent protein) (human) (UniProt O15354); assay: fluorescence cross-correlation spectroscopy (FCCS); live N2a cells, a subset of the cells; sequential illumination (only one laser at one time) to reduce bleed through; data not shown
T1 sequence: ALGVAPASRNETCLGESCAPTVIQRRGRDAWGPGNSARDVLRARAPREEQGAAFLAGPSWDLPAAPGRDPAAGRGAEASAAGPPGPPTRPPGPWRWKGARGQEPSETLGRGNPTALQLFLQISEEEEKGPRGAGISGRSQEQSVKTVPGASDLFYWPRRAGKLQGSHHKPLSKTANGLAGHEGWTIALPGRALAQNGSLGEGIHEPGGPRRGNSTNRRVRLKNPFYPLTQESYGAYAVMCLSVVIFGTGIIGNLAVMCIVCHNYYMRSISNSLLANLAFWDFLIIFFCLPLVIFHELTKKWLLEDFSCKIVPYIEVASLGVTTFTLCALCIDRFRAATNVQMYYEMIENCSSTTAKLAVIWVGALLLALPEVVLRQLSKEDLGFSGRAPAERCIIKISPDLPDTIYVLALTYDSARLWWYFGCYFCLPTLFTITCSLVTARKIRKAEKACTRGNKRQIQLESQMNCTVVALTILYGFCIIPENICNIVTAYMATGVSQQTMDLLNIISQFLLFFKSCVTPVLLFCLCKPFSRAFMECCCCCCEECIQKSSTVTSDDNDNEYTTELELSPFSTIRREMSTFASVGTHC

[2] = target: T1, GPR37-eGFP (human G Protein-Coupled Receptor 37 fused to enhanced Green Fluorescent protein) (human); assay: fluorescence cross-correlation spectroscopy (FCCS); live N2a cells, apical plasma membrane, 37 C, 5% CO2; eGFP-tagged GPR37 or GPR37L1 and Td-Tomato-tagged D2R isoform; relative cross-correlation amplitude (RCCA); cells untreated or treated with 4-PBA for 48 h and/or 100 nM pramipexole
[3] = target: T2, GPR37L1-eGFP (human G Protein-Coupled Receptor 37 like 1 fused to enhanced Green Fluorescent protein) (human) (UniProt O60883); assay: as above
T2 sequence: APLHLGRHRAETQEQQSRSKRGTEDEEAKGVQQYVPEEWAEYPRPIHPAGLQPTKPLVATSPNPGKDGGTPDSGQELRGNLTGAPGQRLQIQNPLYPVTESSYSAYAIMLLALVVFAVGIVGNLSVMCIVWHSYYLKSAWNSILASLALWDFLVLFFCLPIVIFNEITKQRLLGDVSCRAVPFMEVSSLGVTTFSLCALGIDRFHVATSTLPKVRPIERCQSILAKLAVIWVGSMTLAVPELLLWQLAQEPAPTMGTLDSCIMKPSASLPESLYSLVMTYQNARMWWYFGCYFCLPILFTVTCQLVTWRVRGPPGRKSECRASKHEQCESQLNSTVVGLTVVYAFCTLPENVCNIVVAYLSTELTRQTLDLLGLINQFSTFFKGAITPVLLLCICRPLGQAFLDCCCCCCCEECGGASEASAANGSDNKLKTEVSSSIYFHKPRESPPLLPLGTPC

| Substance | binding [1] | binding [2] | binding [3] |
| --- | --- | --- | --- |
| D2RL-Td-Tomato (long isoform of the dopamine 2 receptor tagged with Td-Tomato) (from UniProt P14416 1-443) | binds | binds |  |
| D2RS-Td-Tomato (short isoform of the dopamine 2 receptor tagged with Td-Tomato) (from UniProt P14416-2 1-414) |  | binds | binds |
